Measured values: article PMC12670160, “A drug-repurposing screen of FDA- and EMA-approved drugs identifies two NF-κB inhibitors active against eumycetoma” (Journal of Antimicrobial Chemotherapy, 2025)
Structures can show the parent of a compound that is named as a salt. Screen size: about 5,300 compounds; about 130 (2.5%) showed an effect of 50% or more. The list shows a part of the results.

Each compound was assayed on M. mycetomatis strain mm55. Details: primary screen, metabolic activity vs growth control; 96 h, 2 µM; inhibitor.
COc1ccc(-n2nc(CCC(=O)N(C)O)cc2-c2ccc(Cl)cc2)cc1 [ONC0002438, tepoxalin] was tested, and the “% viability” value was 104.2%. In the case of CCOc1nc2c(N)ncnc2n1CC [ONC0001622, anr94], the “% viability” value is reported as 89.68%. For O=P(O)(O)C(O)(Cc1cccnc1)P(=O)(O)O [ONC0004012, risedronate sodium], the “% viability” value was 69.35%. In the case of COc1cc2c(cc1OC)CN(CCc1ccc(NC(=O)c3cccc4c(=O)c5cccc(OC)c5[nH]c34)cc1)CC2 [ONC0001070, elacridar], the “% viability” value is reported as 58.72%. For CC(=O)[C@H]1CC[C@H]2[C@@H]3CC=C4C[C@@H](OC(=O)CCC(=O)O)CC[C@]4(C)[C@H]3CC[C@]12C [ONC0004082, pregnenolone succinate], the “% viability” value was 132.6%. In the case of CC(CCc1ccc(O)cc1)NCC(O)c1ccc(O)cc1 (stereo not drawn) [ONC0004132, ractopamine hydrochloride], the “% viability” value is reported as 105.5%. For Cc1cccc(Oc2cnc(=O)[nH]c2)c1 [ONC0003488, tolimidone mlr 1023], the “% viability” value was 59.01%. In the case of CCN(CCCc1ccccc1)CCCc1ccccc1 [ONC0000319, alverine citrate], the “% viability” value is reported as 77.24%. For C[C@@H](C1=C(CCN(C)C)Cc2ccccc21)c1ccccn1 [ONC0001632, dimethindenes], the “% viability” value was 75.79%. For Cc1c(C)c2c(c(C)c1O)CC[C@@](C)(CCC[C@H](C)CCC[C@H](C)CCCC(C)C)O2 [ONC0002903, vitamine], the “% viability” value was 81.8%. In the case of CC(C)(C)C(O)/C=C/c1ccc2c(c1)OCO2 (stereo not drawn) [ONC0005463, stiripentol], the “% viability” value is reported as 84.93%. With CCc1cc(/C(C)=N/OCc2ccc(C3CCCCC3)c(C(F)(F)F)c2)ccc1CN1CC(C(=O)O)C1 [ONC0004388, baf312 siponimod] the “% viability” value was 88.46%. For CC[C@H](CC[C@@H](C)[C@H]1CC[C@H]2[C@@H]3CC=C4C[C@@H](O[C@@H]5O[C@H](CO)[C@@H](O)[C@H](O)[C@H]5O)CC[C@]4(C)[C@H]3CC[C@]12C)C(C)C [ONC0002029, daucosterol], the “% viability” value was 64.15%. Cc1cc(NC(=O)Nc2ccc(F)c(F)c2)n(-c2ccccc2)n1 [ONC0001393, ml297] was tested, and the “% viability” value was 113%. For C=C[C@@]1(C)CC(=O)[C@]2(O)[C@@]3(C)[C@@H](O)CCC(C)(C)[C@@H]3[C@H](OC(=O)CCN(C)C)[C@H](OC(C)=O)[C@@]2(C)O1 [ONC0002915, colforsindaproate], the “% viability” value was 95.97%. For Cc1cccc(NC(=O)c2ccc(C(F)(F)F)cc2C(=O)O)n1 [ONC0001038, af38469], the “% viability” value was 84.75%. For CCn1c(-c2nonc2N)nc2cnc(Oc3cccc(NC(=O)c4ccc(OCCN5CCOCC5)cc4)c3)cc21 [ONC0002474, gsk269962], the “% viability” value was 46.2%. With C[C@]12CC[C@@H]3c4ccc(O)cc4CC[C@H]3[C@@H]1[C@@H](O)[C@@H](O)[C@@H]2O [ONC0005540, estetrol] the “% viability” value was 86.71%. For NC(=O)NO [ONC0000587, hydroxyurea], the “% viability” value was 64.11%. Clc1ccccc1C(c1ccccc1)(c1ccccc1)n1ccnc1 [Clotrimazole] was tested, and the “% viability” value was 2.944%. In the case of CO/N=C1\CN(c2nc3c(cc2F)c(=O)c(C(=O)O)cn3C2CC2)CC1CN (stereo not drawn) [ONC0004036, gemifloxacin mesylate], the “% viability” value is reported as 71.96%. In the case of CON(C)C(=O)[C@H](O)[C@H](Cc1ccccc1)NC(=O)c1cc2cc(Cl)ccc2[nH]1 [ONC0001518, cp316819], the “% viability” value is reported as 117.2%. With O=C(O)CCCCCCCCC(=O)O [ONC0005473, disodium sebacate] the “% viability” value was 90.67%. In the case of CCC(=O)NC[C@@H]1C[C@H]1c1cccc2c1CCO2 [ONC0002690, tasimelteon], the “% viability” value is reported as 69.8%. With Clc1ccc(COC(Cn2ccnc2)c2ccc(Cl)cc2Cl)cc1 (stereo not drawn) [ONC0000666, econazole nitrate] the “% viability” value was 102.4%. CC(C)c1c2cc(-c3ccnc(N[C@H]4CC[C@H](NC5CCOCC5)CC4)n3)ccc2nn1C [ONC0002761, ly2857785] was tested, and the “% viability” value was 125.7%. In the case of CC[C@@H](C(=O)O)C1CC[C@H](C)C([C@@H](C)[C@H](O)[C@H](C)C(=O)[C@H](CC)C2O[C@]3(C=C[C@@H](O)[C@]4(CC[C@@](C)(C5CC[C@](O)(CC)[C@H](C)O5)O4)O3)[C@H](C)C[C@@H]2C)O1 (stereo partly drawn) [ONC0004344, salinomycin procoxacin], the “% viability” value is reported as 144.3%. In the case of CN[C@@H]1C(OC2[C@H](O[C@H]3[C@H](O)[C@@H](O)[C@H](NC(=N)N)[C@@H](O)[C@@H]3NC(=N)N)OC(C)[C@]2(O)CO)OC(CO)C(O)C1O (stereo partly drawn) [ONC0000464, dihydrostreptomycin sesquisulfate 5mm10 aq dmso], the “% viability” value is reported as 68.06%. For CCCC(C(=O)OCCN(CC)CC)(c1ccccc1)c1ccccc1 [ONC0004163, proadifen hydrochloride], the “% viability” value was 65.11%. CCCN1CCC[C@@H]2Cc3n[nH]cc3C[C@H]21 [ONC0002699, quinpirol] was tested, and the “% viability” value was 68.38%. In the case of O=S(=O)(O)CCSSCCS(=O)(=O)O [ONC0004092, dimesna], the “% viability” value is reported as 119.9%. With C=CC[N@@+]12CC[C@@]34c5ccccc5N5/C=C6/[C@H]7C[C@H]8[C@@]9(CC[N@@+]8(CC=C)C/C7=C/CO)c7ccccc7N(/C=C(/[C@@H](C[C@@H]31)/C(=C\CO)C2)[C@H]54)[C@@H]69 [ONC0002905, alcuronium] the “% viability” value was 75.88%. In the case of Cc1cc(CC(C)CC(C)(C)C)n(O)c(=O)c1 (stereo not drawn) [ONC0002323, piroctone olamine], the “% viability” value is reported as 131.8%. CC(C)(C)c1ccc(S(=O)(=O)NCc2ccc(C(=O)Nc3cccnc3)cc2)cc1 [ONC0001855, stf31] was tested, and the “% viability” value was 80.22%. With O=C(O)CNC(=O)C(CS)Cc1ccccc1 (stereo not drawn) [ONC0003501, thiorphan] the “% viability” value was 71.51%. COC[C@@H](c1ccc(C(F)(F)F)cc1)N1CCN(C2(C)CCN(C(=O)c3c(C)ncnc3C)CC2)C[C@@H]1C [ONC0002026, vicriviroc maleate] was tested, and the “% viability” value was 74.17%. With NC(C(=O)O)c1cc(O)ccc1Cl (stereo not drawn) [ONC0001508, chpg] the “% viability” value was 113.3%. Clc1cccc(/C=N/C=N/c2cccc(Cl)c2)c1 [ONC0004453, 33dichlorobenzaldazine] was tested, and the “% viability” value was 144.6%. In the case of CCCC(CCC)C(=O)O [ONC0005341, valproate sodium], the “% viability” value is reported as 115.6%. With CN(C)CCCC1(c2ccc(F)cc2)OCc2cc(C#N)ccc21 (stereo not drawn) [ONC0003807, citalopram] the “% viability” value was 64.39%. With CN(C)[C@@H](CCOc1cccc2ccccc12)c1ccccc1 [ONC0004885, dapoxetine hydrochloride priligy] the “% viability” value was 112.5%. For Nc1nc2nn[nH]c2c(=O)[nH]1 [ONC0002792, azaguanine8], the “% viability” value was 265.7%. CC[C@H](Nc1ncnc2[nH]cnc12)c1nc2cccc(F)c2c(=O)n1-c1ccccc1 [ONC0005230, cal101 gs1101] was tested, and the “% viability” value was 109.6%. In the case of Cc1ccccc1CN1CC2=C(CCN(Cc3ccccc3)C2=O)N2CCN=C12 [ONC0005082, tic10 analogue], the “% viability” value is reported as 71.17%. For O=C(Nc1ccc(F)cc1)N1CCc2ccccc2C1c1ccc(C(F)(F)F)cc1 (stereo not drawn) [ONC0000140, tci2000], the “% viability” value was 100.7%. With Cc1nccn1CCC(C(N)=O)(c1ccccc1)c1ccccc1 [ONC0001199, imidafenacin] the “% viability” value was 96.37%. In the case of CC(C)c1noc(N2CCC(COc3ccc(-c4ccc(S(C)(=O)=O)cc4)nc3)CC2)n1 [ONC0004915, gsk1292263], the “% viability” value is reported as 109.9%. O=C(NC1CCNCC1)c1n[nH]cc1NC(=O)c1c(Cl)cccc1Cl [ONC0004841, at7519] was tested, and the “% viability” value was 120.1%. With CCCCCCOc1cc2c(cc1N(C)c1ncc(C(=O)O)cn1)C(C)(C)CCC2(C)C [ONC0000258, pa452] the “% viability” value was 77.13%. CN[C@@H]1CCc2[nH]c3ccc(C(N)=O)cc3c2C1 [ONC0005506, frovatriptan] was tested, and the “% viability” value was 114.4%. O=C(CCCc1ccc(-c2ccccc2F)cc1)Nc1ccc(O)cc1 [ONC0000116, cmpd1] was tested, and the “% viability” value was 102.2%. With O=C(O)/C=C/c1ccc(-c2ccc(O)c(C34CC5CC(CC(C5)C3)C4)c2)cc1 [ONC0001926, adarotene] the “% viability” value was 144.7%. For COc1ccc(-c2coc3cc(O)cc(O)c3c2=O)cc1 [ONC0004943, biochanin a 4methylgenistein], the “% viability” value was 91.76%. With C[S+]([O-])c1ccc(-c2nc(-c3ccncc3)c(-c3ccc(F)cc3)[nH]2)cc1 (stereo not drawn) [ONC0000881, sb203580] the “% viability” value was 87.12%. C=C1/C(=C\C=C2/CCC[C@]3(C)[C@@H]([C@H](C)/C=C/[C@H](C)C(C)(C)O)CC[C@@H]23)C[C@@H](O)C[C@@H]1O [ONC0001290, ercalcitriol] was tested, and the “% viability” value was 72.21%. With C[C@H](NC(=O)/C(C#N)=C/c1ccc(O)c(O)c1)c1ccccc1 [ONC0001705, tyrphostinag835] the “% viability” value was 111.6%. COC1=CC(=O)C[C@@H](C)[C@]12Oc1c(Cl)c(OC)cc(OC)c1C2=O [ONC0003303, griseofulvin] was tested, and the “% viability” value was 56.87%. For CCC(=O)NCC[C@@H]1CCc2ccc3c(c21)CCO3 [ONC0003970, ramelteon], the “% viability” value was 71.52%. In the case of Cc1cn2c(N)c(Cl)cc(C(=O)NCC3CCN(CC(C)C)CC3)c2n1 [ONC0001591, cj033466], the “% viability” value is reported as 72.45%. In the case of CC(C)(C)c1cc(/C=C(\C#N)C(N)=S)cc(C(C)(C)C)c1O [ONC0005258, tyrphostin ag 879 ag 879], the “% viability” value is reported as 127.6%.
